Test results as given in patent US20160264684A1, “GLYCAN-INTERACTING COMPOUNDS AND METHODS OF USE” (SIAMAB THERAPEUTICS, INC., priority 2013, published 2016).
Some of these results come from one statement about several compounds together.

Tested on: STn on bovine submaxillary mucin (BSM)
Test: Anti-STn BSM ELISA
Assay type: binding
Settings: non-linear regression on periodate subtracted data; 7-point 1:5 dilution from 100 nM
Procedure: Anti-STn serum titer is determined using a murine anti-STn bovine submaxillary mucin (BSM) ELISA together with serum profiles observed by glycan microarray. 96-well plates are coated with 1 μg/well of BSM and incubated overnight at 4° C. O-acetylation of BSM antigen is removed by treating wells with 0.1 M sodium hydroxide. Specific binding to STn is determined by treatment of wells with sodium periodate. Periodate treatment destroys the C6 side chain of sialic acid; therefore antibodies raised against STn should not bind to periodate-treated wells. Wells are blocked with PBS 1% ovalbumin (OVA). Serum samples to be assayed are serially diluted in PBS 1% OVA. […] Detection of anti-STn antibodies present in serum is determined using an HRP-conjugated polyclonal goat anti-mouse IgG antibody (Jackson Immunoresearch, West Grove, Pa.). […] Optical densities are measured at 490 nm using a Spectramax microplate reader (Molecular Devices, Sunnyvale, Calif.). The serum titer is obtained by comparison of OD values with a cutoff value calculated as two standard deviations above the mean of optical density values of the negative control. […]
Binding affinities of 18D2 and 18C7 to STn were compared to commercially available anti-STn antibodies using the BSM ELISA assay described in Example 2. […] Optical densities were measured at 490 nm using a Spectramax microplate reader. […]

B1: B72.3: commercial anti-STn antibody, TAG-72 clone B72.3 (Thermo Fisher Scientific) (antibody, chains of the INN, looked up, V domains shown)
VH: QVQLQQSDAELVKPGASVKISCKASGYTFTDHAIHWAKQKPEQGLEWIGYISPGNDDIKYNEKFKGKATLTADKSSSTAYMQLNSLTSEDSAVYFCKRSYYGHWGQGTTLTVSS
VL: DIQMTQSPASLSVSVGETVTITCRASENIYSNLAWYQQKQGKSPQLLVYAATNLADGVPSRFSGSGSGTQYSLKINSLQSEDFGSYYCQHFWGTPYTFGGGTRLEIK
EC50: < 1 nM
